Library screening results

By UniProt entry, the sequences of proteins in these tests, tags left out.
UniProt E9BF75, entry or part of it: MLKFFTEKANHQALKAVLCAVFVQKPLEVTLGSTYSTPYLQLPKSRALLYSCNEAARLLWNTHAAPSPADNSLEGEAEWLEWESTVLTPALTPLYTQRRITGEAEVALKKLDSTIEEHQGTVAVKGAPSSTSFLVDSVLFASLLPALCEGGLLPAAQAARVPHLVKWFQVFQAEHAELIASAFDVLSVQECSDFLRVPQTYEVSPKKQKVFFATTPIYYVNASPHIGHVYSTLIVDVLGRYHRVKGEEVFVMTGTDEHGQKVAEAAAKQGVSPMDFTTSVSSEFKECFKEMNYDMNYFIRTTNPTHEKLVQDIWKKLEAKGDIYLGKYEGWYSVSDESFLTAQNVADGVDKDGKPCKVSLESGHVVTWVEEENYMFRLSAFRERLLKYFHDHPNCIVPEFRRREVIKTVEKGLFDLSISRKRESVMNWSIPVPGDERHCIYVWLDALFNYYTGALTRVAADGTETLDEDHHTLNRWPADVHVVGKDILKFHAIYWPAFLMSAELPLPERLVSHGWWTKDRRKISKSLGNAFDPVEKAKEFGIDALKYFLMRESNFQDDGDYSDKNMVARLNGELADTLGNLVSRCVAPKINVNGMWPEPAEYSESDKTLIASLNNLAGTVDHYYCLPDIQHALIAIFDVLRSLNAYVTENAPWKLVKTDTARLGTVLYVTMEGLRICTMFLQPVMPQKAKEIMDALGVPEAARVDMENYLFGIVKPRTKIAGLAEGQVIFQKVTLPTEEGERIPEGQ

Measurements from “University of Dundee, Small-Polar-MMV Screening Library” (2021), ChEMBL document CHEMBL3988442.

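Primary screen of methionyl-tRNA synthetase; the read-out is not stated. Target: Methionyl-tRNA synthetase (putative), Leishmania donovani (UniProt E9BF75). The test concentration is not given. Values are per cent inhibition. Of about 68,000 compounds tested this way, about 24 (0.035%) reached 50% or more in at least one test.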

Results are percentages, as filed.
The controls that fix the scale are not given in the record; negative values are as filed.
This is an unselected part of the compounds tested.

| SMILES | Inhibition |
|---|---|
| `Cc1nccc(C2CN(C(=O)c3cncnc3)C2)n1` | 18.35 |
| `CCn1nc(C)c(CN(CCOC)C(=O)c2ccc(=O)[nH]n2)c1C` | 14.29 |
| `Cc1ccc2c(C)c(C(=O)NCc3csc(N)n3)oc2c1` | 12.03 |
| `Cc1nc(C(=O)N(C)CC2CCCO2)nn1-c1ccccc1C(C)C` (stereo not given) | 16.57 |
| `COc1ccc(CN(C)C(=O)NC(C)c2nncn2C)cc1F` (stereo not given) | 8.614 |
| `CC(C)CC(=O)N1CCCn2cnc(CN3CCCC3=O)c2C1` | 14.5 |
| `COc1ccc(F)cc1C(=O)N1CCCC(n2nc(C)nc2C)C1` (stereo not given) | 13.4 |
| `COc1ccc(Cl)cc1-n1nc(C2CCCC2)nc1Cn1cnnn1` | 10.64 |
| `Cc1cc(C)c(C(=O)N2CCCC(C(=O)CCc3ccccc3)C2)cn1` (stereo not given) | 7.988 |
| `COCCN(Cc1ccccc1)Cc1csc(-c2ncccn2)n1` | 5.797 |
| `Cc1cc(CN2CCN(Cc3cc(C#N)ccc3F)CC2)no1` | 4.737 |
| `COCC(C)N(C)C(=O)c1ccc2nncn2c1` (stereo not given) | 2.799 |
| `CCC(C)(O)CNc1ccc(S(=O)(=O)C(F)F)cc1` (stereo not given) | 15.06 |
| `COc1coc(CN2CCCC(CCc3c(F)cccc3F)C2)cc1=O` (stereo not given) | 13.65 |
| `COC(=O)COc1nc(CC(C)C)c2c(c1C#N)CCCC2` | 8.889 |
| `CN(Cc1cc2n(n1)CCNC2)Cc1cc(-c2ccccn2)no1` | -9.023 |
| `C=Cc1ccc(C(=O)N2CCCC(Nc3ccc(F)c(F)c3)C2)cc1` (stereo not given) | 16.05 |
| `CNC(=O)c1nc(COc2ccc3c(c2)OCO3)no1` | 5.943 |
| `CC(C#N)CN(C)Cc1c(Cl)ccc2cccnc12` (stereo not given) | 4.668 |
| `Cc1ncoc1C(=O)N1CCOC(Cc2ccccc2)C1` (stereo not given) | 3.641 |
| `CCOCC(=O)NC1(c2cccc(Br)c2)CC1` | 4.71 |
| `COC(=O)c1cc(OCC2CCC2)cc(C(=O)NCC(C)(C)O)c1` | 12.13 |
| `CCOc1cc(C)nc(N2CCN(C(=O)c3csnn3)CC2)n1` | 20.11 |
| `COc1ccc(N(c2ccc(C)cc2)c2ccc(C(=O)O)s2)cc1` | 14.32 |
| `CCOc1cc([C@@H]2N[C@H](c3nccs3)Cc3ccsc32)ccc1OC` | 15.94 |
| `COc1ccc(Br)c(C(=O)N2CCC(c3n[nH]c(C4CC4)n3)CC2)c1` | 17.36 |
| `Cc1ccc(C(NC(=O)CCNC(=O)c2ccoc2)C(F)(F)F)cc1` (stereo not given) | 5.155 |
| `NC(=O)CN(Cc1ccc(Br)cc1)C(=O)c1ccccn1` | 12.66 |
| `CN(C(=O)OC(C)(C)C)C1CCN(C(=O)c2ccc(Cl)o2)C1` (stereo not given) | 11.55 |
| `CN1CCN(C(=O)C2CN(Cc3cc4ccccc4o3)CCN2)CC1` (stereo not given) | 10.47 |
| `CCN(C)C(=O)CCC(=O)c1cccs1` | 8.511 |
| `COC(=O)c1ccc(Cn2cnc(C#N)n2)cc1` | 0.838 |
| `COc1cccc(NC(=O)c2cc3c([nH]c2=O)CCCC3=O)c1` | 6.316 |
| `O=C(c1cccs1)N1CC[C@H]2C[C@@H](c3nnc(C4CC4)o3)O[C@@H]2C1` | 7.752 |
| `CCc1nc(C2CCCN2C(=O)CCc2cscn2)no1` (stereo not given) | 1.955 |
| `Cc1nccnc1-n1c(COCC(=O)O)nc2c(C)cccc21` | 10.65 |
| `Cc1ncsc1CN(Cc1ccccc1)Cc1ccncc1` | 19.27 |
| `CCc1nc(CN(C)C2CCN(CCNS(=O)(=O)CC)C2)no1` (stereo not given) | -2.098 |
| `CNS(=O)(=O)c1ccc(C(=O)NC2CCc3nc(C)cn3C2)o1` (stereo not given) | 13.27 |
| `COc1ccc(CNC(=O)N(C)CC(C)(C)O)cc1OC` | 14.97 |
| `COc1cc(C)sc1C(=O)N1CC(c2cccnc2)C1` | 10.51 |
| `O=C(CN1CC(c2nc(-c3cccs3)no2)C1)NCC1CCCO1` (stereo not given) | 16.55 |
| `COc1c(C(=O)NCC(C)C)nnn1Cc1ccccc1` | -14.82 |
| `Cc1cc(N2CCC(Cc3ccccc3)CC2)nc(-c2ccncc2)n1` | 5.923 |
| `CCOC(=O)NC(CNC(=O)c1ccccn1)CC(C)C` (stereo not given) | 7.063 |

For reference, 3 entries once more:

SMILES	Inhibition
Cc1ncoc1C(=O)N1CCOC(Cc2ccccc2)C1 (stereo not given)	3.641
CCOc1cc([C@@H]2N[C@H](c3nccs3)Cc3ccsc32)ccc1OC	15.94
Cc1nccnc1-n1c(COCC(=O)O)nc2c(C)cccc21	10.65